# Measured values published in the supplement of paper PMC8728848.
# The other results are listed elsewhere or left out.
# B1: BT4246 (Bacteroides thetaiotaomicron), Q89ZX5 (protein)
# chain: MGSSHHHHHHENLYFQGHMASDYLDVVPPEQPNIDDAMSSPTRALGFLYSCYGGVSTDLPSAYLGEINSTTDEYVLPYSWNTDGYWGAYAFNTASSTNQDWLWGTTYQYIGQCYLFLQKLENAGSDIASDAEKEQWRAECQFLVAYYHFATLRRYGPIPITDSYIPMDTPTSEYNGRFHFDYCVDWIANQLDEAAKVLPANRTVTNEWGRATSTIAKAVKARLLLYAASPLWNGSFPYPNWQNENFETPGYGKALVSNTYDKSKWERALAACQEALTLATTSGDRELYDDDEYYSRQSLNLPFVPGVADVEDNKEFLKNVMKMRYAVSTRESEGNKEIIWGLSNQFDFYSRYPLRILKKSDGTWHAGYSGVSPTLYTFEHFYTANGKLPEKDLDFTPSSEWFESAGISSREDIIKLNVGREPRFYAWMAFDGGDYGTKFAAGSPLKLEMRNSEMHGYNPSLFNRDHSVTGFLTQKFVDPVTEFYTAGGSTSGTSAPTILFRLAELYLNVAECHAALGNTQEAIDALNPVRERAGIPKLTLADITNNMTIKDWVHNERFVELWNEGHRFFDVRRWAEGAKYFGANKREGLNAEVQSPTFEEFNKRTTVDAPYVWENRMYLNPVFYNEVYKNPQMVQAPGY
# Tests used:
# Assay in all cases: glycan array binding signal (z-score within array); higher = stronger binding
# Conditions in all cases: glycan notation: IUPAC condensed, linker removed
# [1] = molecular target: Gal3S(b1-3)[Fuc(a1-4)]GlcNAc
# Method in brief: (§1)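 Glycan array data were curated from 3228 arrays in the Consortium for Functional Glycomics database and kept only where the protein sequence was available. Glycan names were converted to IUPAC-condensed notation, and columns mapping to the same glycan were averaged. The binding signal is a within-array Z-score, averaged across arrays of the same protein sequence at different concentrations or buffers and across linkers. Negative Z-scores can be read as non-binding.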
# Gal3S(b1-4)Glc = molecular target: Gal3S(b1-4)Glc
# Method in brief: as §1
# Gal3S(b1-4)Glc6S = molecular target: Gal3S(b1-4)Glc6S
# Method in brief: as §1
# Gal3S(b1-4)GlcNAc = molecular target: Gal3S(b1-4)GlcNAc
# Method in brief: as §1
# [2] = molecular target: Gal3S(b1-4)[Fuc(a1-3)]Glc6S
# Method in brief: as §1
# [3] = molecular target: Gal3S(b1-4)[Fuc(a1-3)]GlcNAc
# Method in brief: as §1
# [4] = molecular target: Gal3S(b1-4)[Fuc(a1-3)]GlcNAc6S
# Method in brief: as §1
# Gal3S4S(b1-4)GlcNAc = molecular target: Gal3S4S(b1-4)GlcNAc
# Method in brief: as §1
# Gal3S6S(b1-4)GlcNAc = molecular target: Gal3S6S(b1-4)GlcNAc
# Method in brief: as §1
# Gal3S6S(b1-4)GlcNAc6S = molecular target: Gal3S6S(b1-4)GlcNAc6S
# Method in brief: as §1
# Gal4S(b1-4)GlcNAc = molecular target: Gal4S(b1-4)GlcNAc
# Method in brief: as §1
# Gal4S6S(b1-4)GlcNAc = molecular target: Gal4S6S(b1-4)GlcNAc
# Method in brief: as §1
# Gal6P(b1-4)GlcNAc = molecular target: Gal6P(b1-4)GlcNAc
# Method in brief: as §1
# Gal6S(b1-3)GlcNAc = molecular target: Gal6S(b1-3)GlcNAc
# Method in brief: as §1
# Gal6S(b1-3)GlcNAc6S = molecular target: Gal6S(b1-3)GlcNAc6S
# Method in brief: as §1
# Gal6S(b1-4)Glc = molecular target: Gal6S(b1-4)Glc
# Method in brief: as §1
# Gal6S(b1-4)Glc6S = molecular target: Gal6S(b1-4)Glc6S
# Method in brief: as §1
# Gal6S(b1-4)GlcNAc = molecular target: Gal6S(b1-4)GlcNAc
# Method in brief: as §1
# Gal6S(b1-4)GlcNAc6S = molecular target: Gal6S(b1-4)GlcNAc6S
# Method in brief: as §1
# GalNAc(a1-3)Gal = molecular target: GalNAc(a1-3)Gal
# Method in brief: as §1
# GalNAc(a1-3)GalNAc = molecular target: GalNAc(a1-3)GalNAc
# Method in brief: as §1
# [5] = molecular target: GalNAc(a1-3)GalNAc(b1-3)Gal(a1-4)Gal(b1-4)Glc
# Method in brief: as §1
# [6] = molecular target: GalNAc(a1-3)GalNAc(b1-3)Gal(a1-4)Gal(b1-4)GlcNAc
# Method in brief: as §1
# GalNAc(b1-3)Gal = molecular target: GalNAc(b1-3)Gal
# Method in brief: as §1
# [7] = molecular target: GalNAc(b1-3)Gal(a1-4)Gal(b1-4)GlcNAc
# Method in brief: as §1
# [8] = molecular target: GalNAc(b1-3)Gal(a1-4)Gal(b1-4)GlcNAc(b1-3)Gal(b1-4)Glc
# Method in brief: as §1
# [9] = molecular target: GalNAc(b1-3)Gal(a1-6)Gal(b1-4)Glc
# Method in brief: as §1
# GalNAc(b1-3)GalNAc = molecular target: GalNAc(b1-3)GalNAc
# Method in brief: as §1
# GalNAc(b1-3)GlcNAc = molecular target: GalNAc(b1-3)GlcNAc
# Method in brief: as §1
# GalNAc(b1-4)Gal(b1-4)Glc = molecular target: GalNAc(b1-4)Gal(b1-4)Glc
# Method in brief: as §1
# GalNAc(b1-4)GlcNAc = molecular target: GalNAc(b1-4)GlcNAc
# Method in brief: as §1
# [10] = molecular target: GalNAc(b1-4)GlcNAc(b1-2)Man
# Method in brief: as §1
# [11] = molecular target: GalNAc(b1-4)GlcNAc(b1-2)Man(a1-3)[GalNAc(b1-4)GlcNAc(b1-2)Man(a1-6)]Man(b1-4)GlcNAc(b1-4)GlcNAc
# Method in brief: as §1
# [12] = molecular target: GalNAc(b1-4)GlcNAc(b1-3)GalNAc(b1-4)GlcNAc
# Method in brief: as §1
# GalNAc(b1-4)GlcNAc6S = molecular target: GalNAc(b1-4)GlcNAc6S
# Method in brief: as §1
# GalNAc(b1-6)GalNAc = molecular target: GalNAc(b1-6)GalNAc
# Method in brief: as §1
# GalNAc3S(b1-4)GlcNAc = molecular target: GalNAc3S(b1-4)GlcNAc
# Method in brief: as §1
# GalNAc3S(b1-4)GlcNAc3S = molecular target: GalNAc3S(b1-4)GlcNAc3S
# Method in brief: as §1
# [13] = molecular target: GalNAc3S(b1-4)[Fuc(a1-3)]GlcNAc
# Method in brief: as §1
# GalNAc4S6S(b1-4)GlcNAc = molecular target: GalNAc4S6S(b1-4)GlcNAc
# Method in brief: as §1
# GalNAc6S(b1-4)GlcNAc = molecular target: GalNAc6S(b1-4)GlcNAc
# Method in brief: as §1
# Glc(a1-4)Glc = molecular target: Glc(a1-4)Glc
# Method in brief: as §1
# [14] = molecular target: Glc(a1-4)Glc(a1-4)Glc(a1-4)Glc
# Method in brief: as §1
# Glc(a1-6)Glc(a1-6)Glc = molecular target: Glc(a1-6)Glc(a1-6)Glc
# Method in brief: as §1
# [15] = molecular target: Glc(a1-6)Glc(a1-6)Glc(a1-6)Glc
# Method in brief: as §1
# Glc(b1-4)Glc = molecular target: Glc(b1-4)Glc
# Method in brief: as §1
# Glc(b1-6)Glc = molecular target: Glc(b1-6)Glc
# Method in brief: as §1
# GlcA(b1-3)Gal = molecular target: GlcA(b1-3)Gal
# Method in brief: as §1
# GlcA(b1-3)GlcNAc = molecular target: GlcA(b1-3)GlcNAc
# Method in brief: as §1
# GlcA(b1-6)Gal = molecular target: GlcA(b1-6)Gal
# Method in brief: as §1
# [16] = molecular target: GlcA3S(b1-3)Gal(b1-4)GlcNAc(b1-2)Man
# Method in brief: as §1
# [17] = molecular target: GlcA3S(b1-3)Gal(b1-4)GlcNAc(b1-3)Gal(b1-4)Glc
# Method in brief: as §1
# [18] = molecular target: GlcNAc(a1-3)Gal(b1-4)GlcNAc
# Method in brief: as §1
# [19] = molecular target: GlcNAc(a1-4)Gal(b1-3)GlcNAc
# Method in brief: as §1
# [20] = molecular target: GlcNAc(a1-4)Gal(b1-4)GalNAc
# Method in brief: as §1
# [21] = molecular target: GlcNAc(a1-4)Gal(b1-4)GlcNAc
# Method in brief: as §1
# [22] = molecular target: GlcNAc(a1-4)Gal(b1-4)GlcNAc(b1-3)Gal(b1-4)Glc
# Method in brief: as §1
# [23] = molecular target: GlcNAc(a1-4)Gal(b1-4)GlcNAc(b1-3)Gal(b1-4)GlcNAc
# Method in brief: as §1
# [24] = molecular target: GlcNAc(a1-4)Gal(b1-4)GlcNAc(b1-3)Gal(b1-4)GlcNAc(b1-3)Gal(b1-4)GlcNAc
# Method in brief: as §1
# [25] = molecular target: GlcNAc(a1-4)Gal(b1-4)GlcNAc(b1-3)Gal(b1-4)[Fuc(a1-3)]GlcNAc(b1-3)Gal(b1-4)[Fuc(a1-3)]GlcNAc
# Method in brief: as §1
binder,measurement,setting,value
B1,glycan array binding signal (z-score),[1],-0.539
same,glycan array binding signal (z-score),Gal3S(b1-4)Glc,-0.648
same,glycan array binding signal (z-score),Gal3S(b1-4)Glc6S,-0.532
same,glycan array binding signal (z-score),Gal3S(b1-4)GlcNAc,0.273
same,glycan array binding signal (z-score),[2],0.805
same,glycan array binding signal (z-score),[3],0.943
same,glycan array binding signal (z-score),[4],-0.247
same,glycan array binding signal (z-score),Gal3S4S(b1-4)GlcNAc,1.89
same,glycan array binding signal (z-score),Gal3S6S(b1-4)GlcNAc,-0.837
same,glycan array binding signal (z-score),Gal3S6S(b1-4)GlcNAc6S,-1.17
same,glycan array binding signal (z-score),Gal4S(b1-4)GlcNAc,0.082
same,glycan array binding signal (z-score),Gal4S6S(b1-4)GlcNAc,0.27
same,glycan array binding signal (z-score),Gal6P(b1-4)GlcNAc,1.08
same,glycan array binding signal (z-score),Gal6S(b1-3)GlcNAc,0.765
same,glycan array binding signal (z-score),Gal6S(b1-3)GlcNAc6S,-0.574
same,glycan array binding signal (z-score),Gal6S(b1-4)Glc,1.17
same,glycan array binding signal (z-score),Gal6S(b1-4)Glc6S,0.309
same,glycan array binding signal (z-score),Gal6S(b1-4)GlcNAc,-0.871
same,glycan array binding signal (z-score),Gal6S(b1-4)GlcNAc6S,-1
same,glycan array binding signal (z-score),GalNAc(a1-3)Gal,0.339
same,glycan array binding signal (z-score),GalNAc(a1-3)GalNAc,-0.002
same,glycan array binding signal (z-score),[5],-0.376
same,glycan array binding signal (z-score),[6],1
same,glycan array binding signal (z-score),GalNAc(b1-3)Gal,-0.284
same,glycan array binding signal (z-score),[7],-0.469
same,glycan array binding signal (z-score),[8],0.401
same,glycan array binding signal (z-score),[9],-1.14
same,glycan array binding signal (z-score),GalNAc(b1-3)GalNAc,-0.538
same,glycan array binding signal (z-score),GalNAc(b1-3)GlcNAc,1.7
same,glycan array binding signal (z-score),GalNAc(b1-4)Gal(b1-4)Glc,-0.832
same,glycan array binding signal (z-score),GalNAc(b1-4)GlcNAc,0.187
same,glycan array binding signal (z-score),[10],-0.775
same,glycan array binding signal (z-score),[11],-0.395
same,glycan array binding signal (z-score),[12],-0.141
same,glycan array binding signal (z-score),GalNAc(b1-4)GlcNAc6S,-0.616
same,glycan array binding signal (z-score),GalNAc(b1-6)GalNAc,0.406
same,glycan array binding signal (z-score),GalNAc3S(b1-4)GlcNAc,1.88
same,glycan array binding signal (z-score),GalNAc3S(b1-4)GlcNAc3S,-0.1
same,glycan array binding signal (z-score),[13],-1.91
same,glycan array binding signal (z-score),GalNAc4S6S(b1-4)GlcNAc,-0.012
same,glycan array binding signal (z-score),GalNAc6S(b1-4)GlcNAc,-0.344
same,glycan array binding signal (z-score),Glc(a1-4)Glc,1.34
same,glycan array binding signal (z-score),[14],-1.03
same,glycan array binding signal (z-score),Glc(a1-6)Glc(a1-6)Glc,-0.593
same,glycan array binding signal (z-score),[15],-0.919
same,glycan array binding signal (z-score),Glc(b1-4)Glc,-0.822
same,glycan array binding signal (z-score),Glc(b1-6)Glc,-2.27
same,glycan array binding signal (z-score),GlcA(b1-3)Gal,-0.824
same,glycan array binding signal (z-score),GlcA(b1-3)GlcNAc,-0.525
same,glycan array binding signal (z-score),GlcA(b1-6)Gal,-0.398
same,glycan array binding signal (z-score),[16],0.008
same,glycan array binding signal (z-score),[17],-0.356
same,glycan array binding signal (z-score),[18],-1.44
same,glycan array binding signal (z-score),[19],0.164
same,glycan array binding signal (z-score),[20],1.53
same,glycan array binding signal (z-score),[21],-0.735
same,glycan array binding signal (z-score),[22],-0.344
same,glycan array binding signal (z-score),[23],-0.394
same,glycan array binding signal (z-score),[24],-0.441
same,glycan array binding signal (z-score),[25],3.11

# In a second layout: results already given
binder	measurement	setting	value
B1	glycan array binding signal (z-score)	Gal6S(b1-4)GlcNAc	-0.871
same	glycan array binding signal (z-score)	GalNAc(a1-3)Gal	0.339
